Measured values: PMC10567835
No constants are given. Whether binding was seen depends on the method and setting. Binding seen in cells or lysates may run through a third protein. Some entries that bind do so weakly or less than the wild type. Sequences can lack the tags named with a protein.

Target: T1, ubiquitin-specific peptidase 8 (USP8), labeled with flag (UniProt P40818)
T1 sequence: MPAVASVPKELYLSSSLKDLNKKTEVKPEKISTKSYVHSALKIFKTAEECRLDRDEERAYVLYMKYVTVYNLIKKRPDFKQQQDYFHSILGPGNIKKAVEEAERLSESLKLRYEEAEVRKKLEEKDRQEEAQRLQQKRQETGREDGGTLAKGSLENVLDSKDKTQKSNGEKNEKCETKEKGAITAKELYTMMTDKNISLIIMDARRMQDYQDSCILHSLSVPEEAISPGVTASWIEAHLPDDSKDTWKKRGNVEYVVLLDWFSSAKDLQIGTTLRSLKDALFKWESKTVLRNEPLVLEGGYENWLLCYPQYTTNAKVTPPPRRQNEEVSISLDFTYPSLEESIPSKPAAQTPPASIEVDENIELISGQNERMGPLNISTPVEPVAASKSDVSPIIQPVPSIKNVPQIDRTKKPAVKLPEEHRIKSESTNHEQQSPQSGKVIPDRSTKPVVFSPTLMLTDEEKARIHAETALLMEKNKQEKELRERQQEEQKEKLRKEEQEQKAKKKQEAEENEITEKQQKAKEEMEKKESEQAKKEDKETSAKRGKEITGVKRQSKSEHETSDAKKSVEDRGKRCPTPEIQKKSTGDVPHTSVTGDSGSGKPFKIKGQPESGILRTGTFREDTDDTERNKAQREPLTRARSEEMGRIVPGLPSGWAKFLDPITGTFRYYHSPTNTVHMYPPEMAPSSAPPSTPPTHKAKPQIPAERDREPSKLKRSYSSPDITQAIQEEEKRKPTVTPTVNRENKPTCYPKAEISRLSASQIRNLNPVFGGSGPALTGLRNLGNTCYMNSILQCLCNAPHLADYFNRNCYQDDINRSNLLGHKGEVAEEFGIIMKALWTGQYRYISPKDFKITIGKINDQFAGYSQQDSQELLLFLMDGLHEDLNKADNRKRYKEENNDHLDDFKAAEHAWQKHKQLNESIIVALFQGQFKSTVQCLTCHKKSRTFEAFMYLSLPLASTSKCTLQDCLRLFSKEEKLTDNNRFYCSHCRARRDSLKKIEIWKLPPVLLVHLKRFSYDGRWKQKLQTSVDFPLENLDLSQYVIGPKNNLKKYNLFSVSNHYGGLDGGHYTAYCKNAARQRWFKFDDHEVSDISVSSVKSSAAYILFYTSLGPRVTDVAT
Assay: co-IP; hBMSC lysate; probed with flag-labeled USP8 or HA-labeled ASCL1 at 4°C for 3 h; immunoprecipitated protein analysed

B1: Achaete cut complex homolog like 1 (ASCL1), labeled with hemagglutinin (HA) (protein, UniProt P50553 1-236)
chain: MESSAKMESGGAGQQPQPQPQQPFLPPAACFFATAAAAAAAAAAAAAQSAQQQQQQQQQQQQAPQLRPAADGQPSGGGHKSAPKQVKRQRSSSPELMRCKRRLNFSGFGYSLPQQQPAAVARRNERERNRVKLVNLGFATLREHVPNGAANKKMSKVETLRSAVEYIRALQQLLDEHDAVSAAFQAGVLSPTISPNYSNDLNSMAGSPVSSYSSDEGSYDPLSPEEQELLDFTNWF
binding: binds
